In patent US20230018242A1:
These are yes or no findings as the source states them, for the method shown. Binding calls can cover weak binding; strength is not graded here.

Experiments:
[1] = biological target: large surface protein of hepatitis B virus (LHBS), full-length (hepatitis B virus); assay: sandwich ELISA on pooled HBsAg(+) sera, pre-S1 antibody coated
[2] = biological target: pre-S region E. coli recombinant protein (hepatitis B virus); assay: chemiluminescent ELISA, antigen coated

B1: pre-S1 monoclonal antibody (antibody, V domains shown)
VH: DVQLQESGPGLVKPSQSLSLTCTVTGYSITSDYAWNWIRQFPGNKLEWMGYIRYSGTTNYNPSLKSRISITRDTSKNQFFLQLNSVTTEDTATYYCARGGTGLTYWGQGTLVTVSA
VL: NIVMTQSPKSMSMSLGERVTLTCKASENVGTYVSWYQQKPEQSPKLLIYGASNRNTGVPDRFTGSGPATDFTLTISSVQAEDLADYLCGQTYNYPFTFGAGTKLELK
binding [1]: binds | binding [2]: binds
